In PubChem BioAssay AID743255 (National Center for Advancing Translational Sciences (NCATS), 2014):
About 910 (0.23%) of roughly 390,000 compounds were called active. This list was built around the results that the source calls inconclusive (neither active nor inactive); the mix of calls is not that of the screen. Calls follow the shape of the dose curve; as a rule, active = well fitted inhibition curve with a large enough effect; inconclusive = small, poorly fitted or top-dose-only effect; inactive = no such curve, though single readings can be large or run the other way. Potencies of inconclusive entries are doubtful fits and often do not repeat.

The chains behind the UniProt entries cited, without tags or fusion partners. Where a name states a change or a piece, a line headed by the entry shows the natural chain unless it says otherwise.
UniProt O94782: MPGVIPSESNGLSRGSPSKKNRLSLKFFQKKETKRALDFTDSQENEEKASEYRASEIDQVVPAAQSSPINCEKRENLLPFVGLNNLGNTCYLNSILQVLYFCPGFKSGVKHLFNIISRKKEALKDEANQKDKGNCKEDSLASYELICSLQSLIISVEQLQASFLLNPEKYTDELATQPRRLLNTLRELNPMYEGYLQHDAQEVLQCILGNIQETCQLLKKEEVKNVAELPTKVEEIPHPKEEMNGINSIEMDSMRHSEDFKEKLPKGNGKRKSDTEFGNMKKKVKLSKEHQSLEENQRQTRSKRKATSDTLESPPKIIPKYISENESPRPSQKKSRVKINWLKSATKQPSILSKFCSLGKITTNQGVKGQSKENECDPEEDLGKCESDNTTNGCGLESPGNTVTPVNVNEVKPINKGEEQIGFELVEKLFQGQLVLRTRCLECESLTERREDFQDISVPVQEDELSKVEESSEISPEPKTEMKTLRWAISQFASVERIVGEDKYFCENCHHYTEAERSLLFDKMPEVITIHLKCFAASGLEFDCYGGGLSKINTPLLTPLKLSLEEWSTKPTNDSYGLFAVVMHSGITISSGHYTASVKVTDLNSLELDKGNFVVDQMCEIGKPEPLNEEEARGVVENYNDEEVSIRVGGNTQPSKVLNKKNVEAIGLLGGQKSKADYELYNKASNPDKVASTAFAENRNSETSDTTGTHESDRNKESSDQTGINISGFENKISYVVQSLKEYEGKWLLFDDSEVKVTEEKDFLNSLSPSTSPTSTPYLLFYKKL

biological target: Ubiquitin carboxyl-terminal hydrolase 1 (Homo sapiens) (UniProt O94782); assay: Inhibitors of USP1/UAF1: Primary Screen; conditions: recombinant USP1/UAF1, Ub-Rhodamine cleavage fluorescence; activity change, negative = inhibition: at 57.1 µM (top of the series); also: nearly all actives have a fitted effect of over 60% in size
How it was run: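 1 nM enzyme complex + cpd, 15 min RT; start with Ub-Rho 150nM final; kinetic fluorescence ex 480/em 540, 6 reads q60 s. Buffer 50mM HEPES pH 7.8, 0.5mM EDTA, 0.1 mg/ml BSA, 1mM TCEP, 0.01% Tween-20.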
% is scaled to controls: 0 for no effect and ±100 for the full control effect; potency is read from the fitted curve at half-maximal effect.

Potency, inconclusive:
c1ccc(COc2ncnc3c2ncn3CCCN2CCN(Cc3cccc4ccccc34)CC2)cc1 0.282 µM [inhibitor, full curve, poor fit], CC(=O)Nc1ccc(NC(=O)C2CCN(S(=O)(=O)c3cccc4nonc34)CC2)cc1 5.62 µM [inhibitor, partial curve], Cn1ccnc1SCC(=O)Nc1cccc(S(=O)(=O)N2CCCCCC2)c1 0.355 µM [inhibitor, full curve], CN(C)c1ccc(-c2cc([C@H]3[C@@H]4C=CCC[C@@]4(C)C(=O)N3Cc3ccccc3)ccc2F)cc1 0.0891 µM [inhibitor, full curve, poor fit], O=C(NC(=O)c1ccccc1)OCC1CCCN2CCCCC12 (stereo unspecified) 28.2 µM [inhibitor, partial curve], O=C(O)[C@@H]1[C@@H]2C[C@@H]2CN1c1ncccc1[N+](=O)[O-] 22.4 µM [inhibitor, partial curve, poor fit], FC(F)C(F)(F)c1cc(-c2ccc(Cl)cc2)n[nH]1 44.7 µM [inhibitor, single point], C#CCOCCOCCOCCNc1nc(N2CCOCC2)nc(N2CCN(C(=O)[C@H]([C@@H](C)CC)n3cc([C@@H](N)CO)nn3)CC2)n1 2.82 µM [inhibitor, full curve, poor fit], CSc1ccc(/C=C/C(=O)OCC(=O)N2CCCCCC2)cc1 35.5 µM [inhibitor, partial curve], O=C(NC1CCCC1)c1cccc2c1C(=O)c1ccc(Cl)cc1S2(=O)=O 2.24 µM [inhibitor, partial curve, poor fit], O=C(Cc1ccc(Cl)cc1)Nc1ccc2nn(-c3ccccc3)nc2c1 56.2 µM [inhibitor, partial curve, poor fit], Cc1ccc(C(=O)C2=C(O)C(=O)N(c3ncccn3)C2c2ccc(F)cc2)o1 (stereo unspecified) 31.6 µM [inhibitor, partial curve], COC(=O)C(Cc1ccccc1)NS(=O)(=O)c1ccccc1Br (stereo unspecified) 12.6 µM [inhibitor, partial curve, poor fit], COc1ccc(-c2[nH]c(-c3ccc4c(c3)OCO4)nc2-c2ccccc2)cc1 44.7 µM [inhibitor, partial curve, poor fit], CCOC(=O)c1c(C)sc2c1N(C(=O)CN(CC)CC)c1ccccc1S2 44.7 µM [inhibitor, partial curve, poor fit], C[C@@H](NC(=O)c1ncn(C)c1C(=O)N[C@H](C)c1ccccc1)c1ccccc1 178 µM [inhibitor, partial curve, poor fit], C=CCn1c(=NC(=O)c2cccc(N3C(=O)CCC3=O)c2)sc2cccc(OC)c21 17.8 µM [inhibitor, partial curve, poor fit], CNS(=O)(=O)c1cn(CC(=O)N2CCN(c3ccccc3OC)CC2)cc1S(=O)(=O)NC 3.98 µM [inhibitor, partial curve], C=C(C)c1cccc(C(C)(C)NC(=O)N2CCN(c3ccccn3)CC2)c1 39.8 µM [inhibitor, partial curve, poor fit], CC(C)c1ccc(CNCc2ccccc2)cc1 6.31 µM [inhibitor, partial curve, poor fit], O=C(Nc1nnc(S(=O)(=O)N2CCc3ccccc32)s1)c1ccccc1Cl 44.7 µM [inhibitor, single point], CCN(CC)c1ccc(/C=C/c2cccc[n+]2C)c(OC)c1 17.8 µM [inhibitor, partial curve], COC1=C(C)C(=O)C2=C(C1=O)C1C3CC4=C(C(=O)C(OC)=C(C)C4=O)C(CNC(=O)C(C)=O)N3C(C#N)C(C2)N1C (stereo unspecified) 35.5 µM [inhibitor, partial curve], Cc1nc2c(c(C)nn2C(C)(C)C)c(C)c1CCC(=O)Nc1ccc(Br)cc1Br 2.51 µM [inhibitor, full curve], CCCCC[n+]1ccn(C2=C([O-])c3ccccc3C(=O)/C2=N\S(=O)(=O)c2ccc(Cl)cc2)c1 35.5 µM [inhibitor, partial curve], CC1CCCN(c2ncnc3c2cnn3-c2ccccc2)C1 (stereo unspecified) 17.8 µM [inhibitor, partial curve, poor fit], NC(=O)NCc1cccs1 44.7 µM [inhibitor, partial curve, poor fit], CC[C@@H](NC(=O)Cn1cc(C)c(=O)[nH]c1=O)c1ccccc1 39.8 µM [inhibitor, partial curve], Cc1cc(C)c(OCC(=O)OCC(=O)N2CCc3ccccc3C2)c(C)c1 15.8 µM [inhibitor, partial curve], Cc1cc(C(=O)Nc2cccc3c2O[C@@H](CN(C)S(C)(=O)=O)[C@H](C)CN([C@@H](C)CO)C3=O)n(C)n1 7.94 µM [inhibitor, partial curve, poor fit], CSc1ccc(C(c2c(C(=O)O)[nH]c3ccccc23)c2c(C(=O)O)[nH]c3ccccc23)cc1 44.7 µM [inhibitor, partial curve, poor fit], Cc1ccc(-n2ncc3c(NNC(=O)c4ccco4)ncnc32)c(C)c1 0.141 µM [inhibitor, full curve, poor fit], Cn1c(SCC(=O)N2CCCC2=O)nc2ccccc2c1=O 0.251 µM [inhibitor, full curve, poor fit], Nn1c(SCC(=O)NC2CCCCCC2)nnc1C(F)(F)F 0.631 µM [inhibitor, full curve, poor fit], Cc1onc(-c2ccccc2Cl)c1C(=O)Nc1nnc(-c2ccc(Cl)cc2Cl)s1 50.1 µM [inhibitor, partial curve, poor fit], C#CCOCCOCCOCCNc1nc(N2CCN(C(=O)C(Cc3ccc(O)cc3)n3cc(C(N)C(C)CC)nn3)CC2)nc(N2CCN(C(=O)C(Cc3ccc(O)cc3)n3cc(C(N)C(C)CC)nn3)CC2)n1 (stereo unspecified) 3.98 µM [inhibitor, full curve], Cc1ccccc1Cn1c(SCc2ccc(C(=O)NCCc3ccccc3)cc2)nc2ccncc21 7.94 µM [inhibitor, partial curve, poor fit], O=C(CN1CCN(c2cccc(Cl)c2)CC1)NC1CCCc2ccccc21 (stereo unspecified) 39.8 µM [inhibitor, partial curve, poor fit], CCCCC1CCC(CCCC(C)CCC(=O)O)CC1 (stereo unspecified) 39.8 µM [inhibitor, partial curve, poor fit], O=C1N=c2ccccc2=C1c1sc(=S)n(NC(=O)c2cccc(O)c2)c1O 28.2 µM [inhibitor, partial curve], CC1CN(C(=O)CCC(=O)NC(C)c2ccccc2)c2cc(Cl)ccc2O1 (stereo unspecified) 79.4 µM [inhibitor, partial curve, poor fit]

Potency, inactive:
Cc1ccc(-n2nc(C)c3c(C)c(CCC(=O)NCCCOC(C)C)c(C)nc32)cc1, CCS(=O)(=O)c1ncc(Cl)c(C(=O)N(Cc2ccccc2)c2ccc(OC)cc2)n1, COc1ccc2c(C#N)c3ccccn3c2c1, Cc1ccccc1C(c1c(C)n(C)n(-c2ccccc2)c1=O)c1c(C)n(C)n(-c2ccccc2)c1=O, O=c1[nH]c(/C=C/c2cccc3ccccc23)nc2ccccc12, Oc1ccc(N=Nc2ccc3c(c2)OCCO3)c2ncccc12, Cc1ccc(NC(=O)CN(C)C(=O)Cc2c(Cl)cccc2Cl)cc1, COC(=O)CC1C(=O)NCCN1C(=O)c1ccccc1 (stereo unspecified), O=C(Nc1ccc2[nH]ccc2c1)c1ccc(F)cc1, O=C(c1ccccc1)c1ccccc1N1C(=O)C=CC1=O, COc1ccc(OCC(=O)Nc2ccc(N3CCOCC3)cc2)cc1, COc1cccc(C=Nc2cc(C)on2)c1O, O=C(CN1CCC(C(O)(c2ccccc2)c2ccccc2)CC1)Nc1ccccc1, Cc1nn(C)c(C)c1C(C)NC(=O)c1cc(COc2ccc(F)c(F)c2)on1 (stereo unspecified), c1ccc(-c2cnc(SCCN3CCOCC3)n2CC2CCCO2)cc1 (stereo unspecified), COc1ccccc1CCN1CCCC(CN(C)C(=O)c2ccco2)C1 (stereo unspecified), COc1ccc(CN2CSC(=S)N(Cc3ccccc3)C2)cc1, CC(=O)N1CCc2c(sc(NC(=O)CS(=O)(=O)c3ccc(F)cc3)c2C(N)=O)C1, O=C(NC1CCC(O)CC1)c1ccc(-c2ccc(Cl)cc2)o1 (stereo unspecified), Cc1ccc(N2C(=O)c3ccc(C(=O)O)cc3C2=O)cc1C, c1ccc(C2=NN(c3ccccc3)CC2)cc1, COCCNC(=O)CSc1nnc2[nH]c(=O)cc(C)n12, NC(=O)C1CCN(C(=O)c2ccc3ccccc3c2)CC1

Activity change, negative = inhibition, inconclusive:
CCN(CC(=O)Nc1cccc(OC)c1)C(=O)c1ccncc1 -15.3% [inhibitor], CCCCCCN1C[C@H](n2cc(COC(=O)c3ccccc3)nn2)[C@@H](O)C[C@@H]1c1ccc(C)cc1 -34.2% [inhibitor]
